3 molecules from paper PMC10473914, “Phosphorylation of Ack1 by the Receptor Tyrosine Kinase Mer” (Kinases and phosphatases, 2023) can be followed below.

The test addresses T1, Mer receptor tyrosine kinase, full length (UniProt Q60805).
T1 sequence: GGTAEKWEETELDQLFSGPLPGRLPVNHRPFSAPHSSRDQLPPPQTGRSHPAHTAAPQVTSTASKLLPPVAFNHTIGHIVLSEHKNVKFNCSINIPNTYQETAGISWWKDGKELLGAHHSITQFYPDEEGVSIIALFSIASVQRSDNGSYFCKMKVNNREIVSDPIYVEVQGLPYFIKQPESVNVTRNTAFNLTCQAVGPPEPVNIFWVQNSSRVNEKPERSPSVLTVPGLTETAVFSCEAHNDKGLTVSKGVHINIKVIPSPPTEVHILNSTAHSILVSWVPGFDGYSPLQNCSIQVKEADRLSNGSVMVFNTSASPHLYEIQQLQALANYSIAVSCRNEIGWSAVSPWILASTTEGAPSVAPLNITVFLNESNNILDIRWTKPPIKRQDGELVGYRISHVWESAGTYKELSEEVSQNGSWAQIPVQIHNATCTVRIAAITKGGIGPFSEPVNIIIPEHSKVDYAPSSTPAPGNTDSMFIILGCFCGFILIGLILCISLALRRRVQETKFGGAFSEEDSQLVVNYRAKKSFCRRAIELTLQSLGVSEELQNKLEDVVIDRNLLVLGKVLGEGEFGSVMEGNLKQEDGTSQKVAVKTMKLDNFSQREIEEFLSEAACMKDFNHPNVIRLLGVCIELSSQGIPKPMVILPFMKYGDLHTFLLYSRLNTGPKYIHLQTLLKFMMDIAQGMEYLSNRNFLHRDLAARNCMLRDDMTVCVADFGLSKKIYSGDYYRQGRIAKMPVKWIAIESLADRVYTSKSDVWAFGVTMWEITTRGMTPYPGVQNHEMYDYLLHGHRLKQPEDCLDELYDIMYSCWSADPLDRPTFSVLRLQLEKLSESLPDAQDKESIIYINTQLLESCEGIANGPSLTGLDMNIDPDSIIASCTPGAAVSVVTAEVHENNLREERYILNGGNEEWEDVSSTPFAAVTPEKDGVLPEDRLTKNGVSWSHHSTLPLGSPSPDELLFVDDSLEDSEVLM
The experiment in a line: co-IP; HEK293T lysates (0.8 mg) with 1.4 ug anti-Mer antibody (ab184086) and Protein A-agarose at 4 C overnight; anti-Flag Western blot; cells unstimulated or stimulated with 120 ng/mL Gas6 for 15 min. In general terms: In western blotting, separated proteins are transferred to a membrane and probed.

Residue numbers refer to the chain shown, from its start. Names may count otherwise. No constants are given. Whether binding was seen depends on the method and setting. Binding seen in cells or lysates may run through a third protein. Some binding calls cover weakened binding; strength is not graded here. Tags and fused reporters may be left off the sequences shown.

B1: Flag-tagged full-length Ack1 Y859F (enzyme, UniProt Q07912 1-1038)
chain: MQPEEGTGWLLELLSEVQLQQYFLRLRDDLNVTRLSHFEYVKNEDLEKIGMGRPGQRRLWEAVKRRKALCKRKSWMSKVFSGKRLEAEFPPHHSQSTFRKTSPAPGGPAGEGPLQSLTCLIGEKDLRLLEKLGDGSFGVVRRGEWDAPSGKTVSVAVKCLKPDVLSQPEAMDDFIREVNAMHSLDHRNLIRLYGVVLTPPMKMVTELAPLGSLLDRLRKHQGHFLLGTLSRYAVQVAEGMGYLESKRFIHRDLAARNLLLATRDLVKIGDFGLMRALPQNDDHYVMQEHRKVPFAWCAPESLKTRTFSHASDTWMFGVTLWEMFTYGQEPWIGLNGSQILHKIDKEGERLPRPEDCPQDIYNVMVQCWAHKPEDRPTFVALRDFLLEAQPTDMRALQDFEEPDKLHIQMNDVITVIEGRAENYWWRGQNTRTLCVGPFPRNVVTSVAGLSAQDISQPLQNSFIHTGHGDSDPRHCWGFPDRIDELYLGNPMDPPDLLSVELSTSRPPQHLGGVKKPTYDPVSEDQDPLSSDFKRLGLRKPGLPRGLWLAKPSARVPGTKASRGSGAEVTLIDFGEEPVVPALRPCAPSLAQLAMDACSLLDETPPQSPTRALPRPLHPTPVVDWDARPLPPPPAYDDVAQDEDDFEICSINSTLVGAGVPAGPSQGQTNYAFVPEQARPPPPLEDNLFLPPQGGGKPPSSAQTAEIFQALQQECMRQLQAPAGSPAPSPSPGGDDKPQVPPRVPIPPRPTRPHVQLSPAPPGEEETSQWPGPASPPRVPPREPLSPQGSRTPSPLVPPGSSPLPPRLSSSPGKTMPTTQSFASDPKYATPQVIQAPGPRAGPCILPIVRDGKKVSSTHFYLLPERPSYLERYQRFLREAQSPEEPTPLPVPLLLPPPSTPAPAAPTATVRPMPQAALDPKANFSTNNSNPGARPPPPRATARLPQRGCPGDGPEAGRPADKIQMAMVHGVTTEECQAALQCHGWSVQRAAQYLKVEQLFGLGLRPRGECHKVLEMFDWNLEQAGCHLLGSWGPAHHKR
For B1, the binding result was “binds”.

B2: Flag-tagged full-length Ack1 Y860F (enzyme, UniProt Q07912 1-1038)
chain: B1 chain with F859Y, Y860F
For the molecule B2, the binding entry was “binds”.

B3: Flag-tagged full-length Ack1 Y859F/Y860F (enzyme, UniProt Q07912 1-1038)
chain: B1 chain with Y860F
In the case of B3, the binding result is “binds”.
